Measurements from patent US20200330553A1.
Results are given in words; binding and its absence hold for the method and conditions named. For some of these results: Binding seen in cells or lysates may run through a third protein. Some binding calls cover weakened binding; strength is not graded here.

Chains of the proteins cited; added tags and fusions are not shown. Lines headed by an entry give the natural chain unless they say otherwise; changes in a name come on top.
UniProt Q99523: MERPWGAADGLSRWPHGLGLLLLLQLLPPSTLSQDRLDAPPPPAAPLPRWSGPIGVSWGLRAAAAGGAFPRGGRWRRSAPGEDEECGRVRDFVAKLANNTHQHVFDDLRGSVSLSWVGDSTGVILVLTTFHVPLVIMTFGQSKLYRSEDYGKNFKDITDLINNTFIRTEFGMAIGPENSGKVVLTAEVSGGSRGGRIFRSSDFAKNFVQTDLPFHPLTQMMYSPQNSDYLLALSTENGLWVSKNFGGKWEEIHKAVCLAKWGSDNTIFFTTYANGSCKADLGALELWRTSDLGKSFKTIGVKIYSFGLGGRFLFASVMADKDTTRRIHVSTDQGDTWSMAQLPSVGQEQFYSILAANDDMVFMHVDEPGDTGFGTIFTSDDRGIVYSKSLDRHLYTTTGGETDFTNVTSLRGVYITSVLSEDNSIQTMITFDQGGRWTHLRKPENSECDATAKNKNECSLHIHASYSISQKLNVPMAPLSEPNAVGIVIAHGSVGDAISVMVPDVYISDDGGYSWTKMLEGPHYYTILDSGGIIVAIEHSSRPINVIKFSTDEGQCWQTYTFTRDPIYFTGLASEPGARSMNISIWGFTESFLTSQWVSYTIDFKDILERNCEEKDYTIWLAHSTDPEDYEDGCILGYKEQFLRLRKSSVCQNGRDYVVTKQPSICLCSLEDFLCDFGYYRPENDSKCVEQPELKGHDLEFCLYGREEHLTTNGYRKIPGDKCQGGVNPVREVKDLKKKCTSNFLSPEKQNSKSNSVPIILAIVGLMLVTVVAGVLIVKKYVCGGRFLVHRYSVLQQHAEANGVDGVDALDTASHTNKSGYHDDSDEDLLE

Columns and labels:
[1] = molecular target: 6×His sortilin 10CC domain+TMD (human) (UniProt Q99523); assay: non-reducing western blot, HEK293 cells
[2] = molecular target: FLAG-sortilin ECD+TMD (human) (UniProt Q99523); assay: co-immunoprecipitation with anti-FLAG M2, HEK293 cells
[3] = molecular target: FLAG-sortilin without propeptide (human) (UniProt Q99523); assay: non-reducing western blot, HEK293 cells
[4] = molecular target: His-wild type sortilin (adenovirus, HCASMCs) (Homo sapiens (Human)) (UniProt Q99523); assay: non-reducing western blot, HCASMCs and their EVs
[5] = molecular target: His-wild type sortilin (adenovirus, HCASMCs) (Homo sapiens (Human)) (UniProt Q99523); assay: non-reducing western blot of HCASMC-derived EVs
[6] = molecular target: His-wild type sortilin (adenovirus, HCASMCs) (Homo sapiens (Human)) (UniProt Q99523); assay: non-reducing western blot of input and His-tag pulldown, HCASMCs
[7] = molecular target: His-wild type sortilin (adenovirus, HCASMCs) (Homo sapiens (Human)) (UniProt Q99523); assay: non-reducing western blot of input and His-tag pulldown, HCASMC lysates

“6×His sortilin 10CC domain+TMD (from UniProt Q99523 605-778) (receptor)” was tested, and the binding [1] was “binds”.

“6×His-sortilin full-length (Full) (from UniProt Q99523 81-831) (receptor)” was tested, and the binding [2] was “binds”.

With “FLAG-sortilin without propeptide (from UniProt Q99523 81-831) (receptor)” the binding [3] was “binds”.

“Flag-S316E mutant sortilin (adenovirus, HCASMCs) (from UniProt Q99523 78-831) (receptor)” was tested, and the binding [4] was “binds”, the binding [5] was “binds” and the binding [6] was “binds”. The binding [7] was “binds”.
